The assay has as its target EhVps32 (Entamoeba histolytica (endogenous in trophozoites, strain HM1:IMSS)) (UniProt C4M1A5). Nature of the assay: co-IP; mouse α-rEhVps32 antibody on protein G-agarose, incubated overnight at 4°C with pre-cleared trophozoite lysates (basal conditions and 30 min of erythrophagocytosis); western blot of the immunoprecipitates; pre-immune serum as control. On the technique in general: A western blot detects proteins with antibodies after separation by electrophoresis.

By UniProt entry, the sequences of proteins in these tests, tags left out. Where a name states a change or a piece, a line headed by the entry shows the natural chain unless it says otherwise.
UniProt C4M1A5: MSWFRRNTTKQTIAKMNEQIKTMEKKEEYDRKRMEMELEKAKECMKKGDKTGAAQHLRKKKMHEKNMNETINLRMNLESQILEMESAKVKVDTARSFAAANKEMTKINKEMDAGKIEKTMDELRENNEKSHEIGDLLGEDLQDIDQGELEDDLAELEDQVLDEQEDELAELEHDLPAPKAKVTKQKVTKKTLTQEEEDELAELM
UniProt C4M2Y2: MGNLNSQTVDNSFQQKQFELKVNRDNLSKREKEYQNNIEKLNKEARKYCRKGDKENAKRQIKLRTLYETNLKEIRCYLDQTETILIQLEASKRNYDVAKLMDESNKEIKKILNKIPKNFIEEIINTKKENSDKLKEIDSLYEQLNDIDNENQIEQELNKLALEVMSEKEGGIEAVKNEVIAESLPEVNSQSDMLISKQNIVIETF
UniProt C4M7T5: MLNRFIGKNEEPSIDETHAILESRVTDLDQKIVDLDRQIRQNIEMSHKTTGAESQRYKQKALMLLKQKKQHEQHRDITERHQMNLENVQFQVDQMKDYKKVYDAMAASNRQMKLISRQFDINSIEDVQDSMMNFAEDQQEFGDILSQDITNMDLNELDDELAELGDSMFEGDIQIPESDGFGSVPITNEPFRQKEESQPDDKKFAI
UniProt C4LZV3: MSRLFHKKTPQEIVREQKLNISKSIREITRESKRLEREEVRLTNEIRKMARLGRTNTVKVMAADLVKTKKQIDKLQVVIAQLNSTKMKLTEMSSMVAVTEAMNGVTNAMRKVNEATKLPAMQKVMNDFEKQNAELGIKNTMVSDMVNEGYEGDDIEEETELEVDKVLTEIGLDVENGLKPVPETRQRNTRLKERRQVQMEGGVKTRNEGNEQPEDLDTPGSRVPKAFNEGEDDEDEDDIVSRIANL

Results are given in words; binding and its absence hold for the method and conditions named. In cells and extracts the contact can be indirect. A result given as binding can be weak or reduced; the word gives no strength.

On to EhVps24 (from UniProt C4M2Y2), for which the binding result is “binds”. Then EhVps20 (from UniProt C4M7T5), with “binds”; and EhVps2 (from UniProt C4LZV3), with “binds”.

The values are drawn from publication PMC5838018, “The Conserved ESCRT-III Machinery Participates in the Phagocytosis of Entamoeba histolytica” (Frontiers in Cellular and Infection Microbiology, 2018).
